Some of these results come from one statement about several compounds together. At least one compound was matched to its structure with a doubt left.
Key:
Assay in all cases: MIC determination against veterinary pathogens
Conditions in all cases: range covering azithromycin and 4″-deoxy-4″-aminoazithromycin
[1] = system: P. haemolytica; assay type: cell-based, Pasteurella haemolytica
[2] = system: H. somnus; assay type: cell-based, Haemophilus somnus
[3] = system: A. pleuropneumoniae; assay type: cell-based, Actinobacillus pleuropneumoniae
[4] = system: P. multocida; assay type: cell-based, Pasteurella multocida

## CC[C@H]1OC(=O)[C@H](C)[C@@H](O[C@H]2C[C@@](C)(OC)[C@@H](N)[C@H](C)O2)[C@H](C)[C@@H](O[C@@H]2O[C@H](C)C[C@H](N(C)C)[C@H]2O)[C@](C)(O)C[C@@H](C)CN(C)[C@H](C)[C@@H](O)[C@]1(C)O [4″-deoxy-4″-aminoazithromycin]
[1]
  MIC range: 0.125 to 0.5 µg/mL
[2]
  MIC range: 0.062 to 0.25 µg/mL
[3]
  MIC range: 0.062 to 0.5 µg/mL
[4]
  MIC range: 0.125 to 2 µg/mL
